Results taken from article PMC7316345.
These are yes or no findings as the source states them, for the method shown. Binding seen in cells or lysates may run through a third protein. Some results given as binding are weak or reduced against the parent protein; the word gives no strength. Sequences can lack the tags named with a protein.

Tests used:
[1] = molecular target: T1, HA-tagged ABHD5 Q130P (Chanarin-Dorfman syndrome mutant) (human) (UniProt Q8WTS1); assay: co-IP; HA-tagged ABHD5/ABHD4 variants precipitated on anti-HA agarose beads overnight from lysates (1% Triton X-100 in PBS) of co-transduced Lunet N hCD81 cells; ATGL detected by Western blot; cells treated overnight with 100 uM oleic acid
T1 sequence: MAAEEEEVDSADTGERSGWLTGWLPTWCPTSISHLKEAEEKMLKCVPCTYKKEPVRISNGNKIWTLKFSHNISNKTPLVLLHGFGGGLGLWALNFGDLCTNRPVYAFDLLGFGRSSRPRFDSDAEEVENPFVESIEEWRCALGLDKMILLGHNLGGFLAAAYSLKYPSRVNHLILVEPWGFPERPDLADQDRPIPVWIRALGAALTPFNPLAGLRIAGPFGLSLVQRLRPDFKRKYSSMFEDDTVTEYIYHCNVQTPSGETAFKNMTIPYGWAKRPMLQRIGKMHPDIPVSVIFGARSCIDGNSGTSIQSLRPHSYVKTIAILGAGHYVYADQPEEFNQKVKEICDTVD

[2] = molecular target: T2, HA-tagged ABHD5 TBLC mutant (KRK233-235AAA) (human) (UniProt Q8WTS1); assay: as above
T2 sequence: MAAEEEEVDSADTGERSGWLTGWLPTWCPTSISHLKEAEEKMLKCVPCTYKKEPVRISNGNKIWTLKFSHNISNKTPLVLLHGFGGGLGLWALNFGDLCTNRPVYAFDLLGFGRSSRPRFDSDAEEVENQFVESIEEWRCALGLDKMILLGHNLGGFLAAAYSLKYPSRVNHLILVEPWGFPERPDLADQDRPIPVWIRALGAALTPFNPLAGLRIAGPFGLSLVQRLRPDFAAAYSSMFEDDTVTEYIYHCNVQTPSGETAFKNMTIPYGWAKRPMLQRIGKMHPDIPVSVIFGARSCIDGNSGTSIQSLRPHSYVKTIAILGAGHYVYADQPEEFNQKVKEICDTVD

- binding [1]: no binding
- binding [2]: binds
B1: ATGL S47A (catalytic site mutant), untagged (enzyme, UniProt Q96AD5-1 1-504)
chain: MFPREKTWNISFAGCGFLGVYYVGVASCLREHAPFLVANATHIYGAAAGALTATALVTGVCLGEAGAKFIEVSKEARKRFLGPLHPSFNLVKIIRSFLLKVLPADSHEHASGRLGISLTRVSDGENVIISHFNSKDELIQANVCSGFIPVYCGLIPPSLQGVRYVDGGISDNLPLYELKNTITVSPFSGESDICPQDSSTNIHELRVTNTSIQFNLRNLYRLSKALFPPEPLVLREMCKQGYRDGLRFLQRNGLLNRPNPLLALPPARPHGPEDKDQAVESAQAEDYSQLPGEDHILEHLPARLNEALLEACVEPTDLLTTLSNMLPVRLATAMMVPYTLPLESALSFTIRLLEWLPDVPEDIRWMKEQTGSICQYLVMRAKRKLGRHLPSRLPEQVELRRVQSLPSVPLSCAAYREALPGWMRNNLSLGDALAKWEECQRQLLLGLFCTNVAFPPEALRMRAPADPAPAPADPASPQHQLAGPAPLLSTPAPEARPVIGALGL
